Results published in US11677091B2, “Use of quaternary ammonium salt-type anthraquinone-based active material and salt cavern organic aqueous redox flow battery” (CHINA SALT JINTAN CO., LTD., priority 2020, dated 2023).

Test: Battery performance test, salt cavern organic aqueous redox flow battery, single battery stack
Settings: current density 10 mA/cm^2; 0.5 mol/L catholyte; OH-TEMPO 0.5 mol/L anolyte; 2 mol/L NaCl; cation exchange membrane

## C[N+](C)(C)CCCOc1cccc2c1C(=O)c1c(OCCC[N+](C)(C)C)cccc1C2=O [Embodiment 1]
  Coulombic efficiency: 99%
  energy efficiency: 88%
  voltage efficiency: 88%
